We go through 1 compound from the NIST ThermoML archive (doi:10.1021/acs.jced.6b00813).

The conditions of this series: 273.15 K; 101.3 kPa; Liquid; Pycnometric method.

Numbers after ± are expanded uncertainties.

Take `O` [water]: the mass density (in general, mass per unit of volume) was determined as 999 ± 2 kg/m3.
